No constants are given. Whether binding was seen depends on the method and setting. Binding seen in cells or lysates may run through a third protein. Some results given as binding are weak or reduced against the parent protein; the word gives no strength.
Biological target: Forkhead box O (FoxO)3a (rat (endogenous in primary neonatal rat cardiomyocytes)) (UniProt D3ZBQ1)
Assay: co-IP; extracted proteins of cardiomyocytes incubated with primary antibody (anti-FoxO3a or PARP1) overnight at 4 °C; magnetic beads for 4 h; washed with RIPA lysis buffer; Western blot

Sequences of proteins named here, by UniProt entry; tags and fusion partners are left off.
UniProt D3ZBQ1: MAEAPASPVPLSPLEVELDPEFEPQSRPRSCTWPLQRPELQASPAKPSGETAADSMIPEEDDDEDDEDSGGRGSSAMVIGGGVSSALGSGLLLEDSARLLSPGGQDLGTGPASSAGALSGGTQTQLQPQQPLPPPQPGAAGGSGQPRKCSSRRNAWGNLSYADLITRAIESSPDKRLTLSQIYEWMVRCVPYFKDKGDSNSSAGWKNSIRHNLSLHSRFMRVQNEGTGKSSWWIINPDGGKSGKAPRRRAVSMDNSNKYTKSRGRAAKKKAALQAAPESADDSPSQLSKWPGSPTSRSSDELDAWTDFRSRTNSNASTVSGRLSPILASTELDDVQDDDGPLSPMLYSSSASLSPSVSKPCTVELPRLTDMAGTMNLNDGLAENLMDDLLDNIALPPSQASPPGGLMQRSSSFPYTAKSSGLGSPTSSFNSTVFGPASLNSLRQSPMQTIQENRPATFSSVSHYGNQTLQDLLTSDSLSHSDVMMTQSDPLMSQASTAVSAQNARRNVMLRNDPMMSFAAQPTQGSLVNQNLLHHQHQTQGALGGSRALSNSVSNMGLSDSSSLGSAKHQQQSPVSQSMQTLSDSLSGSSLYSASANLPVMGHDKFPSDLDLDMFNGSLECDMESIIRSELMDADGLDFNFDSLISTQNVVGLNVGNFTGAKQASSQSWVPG
UniProt P27008: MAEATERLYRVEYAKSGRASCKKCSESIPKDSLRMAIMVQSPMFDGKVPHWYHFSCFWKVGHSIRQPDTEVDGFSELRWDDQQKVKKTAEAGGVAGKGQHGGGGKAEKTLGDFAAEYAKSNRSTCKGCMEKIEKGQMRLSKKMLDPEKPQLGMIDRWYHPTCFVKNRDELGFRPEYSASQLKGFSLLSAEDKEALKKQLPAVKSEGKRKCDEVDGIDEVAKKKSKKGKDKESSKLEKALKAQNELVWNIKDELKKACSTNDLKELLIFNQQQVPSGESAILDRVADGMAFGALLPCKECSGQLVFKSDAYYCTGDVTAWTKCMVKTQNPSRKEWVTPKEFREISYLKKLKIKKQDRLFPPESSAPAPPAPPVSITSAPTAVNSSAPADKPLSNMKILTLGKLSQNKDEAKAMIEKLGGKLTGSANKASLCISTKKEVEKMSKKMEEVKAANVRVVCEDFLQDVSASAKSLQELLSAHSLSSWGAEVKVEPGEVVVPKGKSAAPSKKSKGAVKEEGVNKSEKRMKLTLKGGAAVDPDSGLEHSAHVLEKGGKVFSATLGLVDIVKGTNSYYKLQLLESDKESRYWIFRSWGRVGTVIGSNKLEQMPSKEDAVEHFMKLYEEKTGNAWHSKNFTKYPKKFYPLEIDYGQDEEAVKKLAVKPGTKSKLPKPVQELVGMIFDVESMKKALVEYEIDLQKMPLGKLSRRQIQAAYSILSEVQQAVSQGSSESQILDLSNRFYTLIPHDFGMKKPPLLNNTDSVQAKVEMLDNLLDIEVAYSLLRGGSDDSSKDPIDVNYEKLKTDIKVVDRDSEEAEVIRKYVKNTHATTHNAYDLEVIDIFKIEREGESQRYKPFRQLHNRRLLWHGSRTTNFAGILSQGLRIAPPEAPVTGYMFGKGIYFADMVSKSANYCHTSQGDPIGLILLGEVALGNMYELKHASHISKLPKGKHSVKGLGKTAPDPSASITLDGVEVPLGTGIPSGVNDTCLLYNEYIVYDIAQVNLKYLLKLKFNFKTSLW

binding: binds
Substance: poly(ADP-ribose) polymerase-1 (from UniProt P27008 1-1014) (enzyme)

Source: publication PMC6189197
